These are yes or no findings as the source states them, for the method shown. In cells and extracts the contact can be indirect. Some binding calls cover weakened binding; strength is not graded here.
Molecular target: connexin43 (mouse (endogenous in primary osteoblasts)) (UniProt P23242)
Experiment: co-IP; Pierce Co-immunoprecipitation Kit; lysate of primary osteoblasts; Cx43 antibody for the bait added at 1:30, overnight; eluate blotted for E11 and beta-actin; rabbit IgG as negative control

By UniProt entry, the sequences of proteins in these tests, tags left out.
UniProt P23242: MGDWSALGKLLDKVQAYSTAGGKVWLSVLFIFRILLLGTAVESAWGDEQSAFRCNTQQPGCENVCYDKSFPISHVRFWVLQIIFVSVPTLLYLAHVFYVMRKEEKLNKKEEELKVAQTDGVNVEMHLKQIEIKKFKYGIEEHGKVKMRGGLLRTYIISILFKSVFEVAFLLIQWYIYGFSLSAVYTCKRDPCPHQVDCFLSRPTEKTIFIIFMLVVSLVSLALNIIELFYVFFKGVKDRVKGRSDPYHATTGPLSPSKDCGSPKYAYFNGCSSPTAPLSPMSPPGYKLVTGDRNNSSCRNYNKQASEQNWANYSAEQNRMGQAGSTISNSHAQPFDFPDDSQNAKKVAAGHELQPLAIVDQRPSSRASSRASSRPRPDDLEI

- binding: binds
B1: E11 (protein, UniProt Q62011 23-172)
chain: GTIGVNEDDIVTPGTGDGMVPPGIEDKITTTGATGGLNESTGKAPLVPTQRERGTKPPLEELSTSATSDHDHREHESTTTVKVVTSHSVDKKTSHPNRDNAGDETQTTDKKDGLPVVTLVGIIVGVLLAIGFVGGIFIVVMKKISGRFSP
